From patent US20200323863A1
Results are given in words; binding and its absence hold for the method and conditions named. In cells and extracts the contact can be indirect. Some results given as binding are weak or reduced against the parent protein; the word gives no strength. Tags and fused reporters may be left off the sequences shown.

T1: LATS1 (Large Tumor Suppressor Kinase 1) (UniProt O95835)
T1 sequence (looked up): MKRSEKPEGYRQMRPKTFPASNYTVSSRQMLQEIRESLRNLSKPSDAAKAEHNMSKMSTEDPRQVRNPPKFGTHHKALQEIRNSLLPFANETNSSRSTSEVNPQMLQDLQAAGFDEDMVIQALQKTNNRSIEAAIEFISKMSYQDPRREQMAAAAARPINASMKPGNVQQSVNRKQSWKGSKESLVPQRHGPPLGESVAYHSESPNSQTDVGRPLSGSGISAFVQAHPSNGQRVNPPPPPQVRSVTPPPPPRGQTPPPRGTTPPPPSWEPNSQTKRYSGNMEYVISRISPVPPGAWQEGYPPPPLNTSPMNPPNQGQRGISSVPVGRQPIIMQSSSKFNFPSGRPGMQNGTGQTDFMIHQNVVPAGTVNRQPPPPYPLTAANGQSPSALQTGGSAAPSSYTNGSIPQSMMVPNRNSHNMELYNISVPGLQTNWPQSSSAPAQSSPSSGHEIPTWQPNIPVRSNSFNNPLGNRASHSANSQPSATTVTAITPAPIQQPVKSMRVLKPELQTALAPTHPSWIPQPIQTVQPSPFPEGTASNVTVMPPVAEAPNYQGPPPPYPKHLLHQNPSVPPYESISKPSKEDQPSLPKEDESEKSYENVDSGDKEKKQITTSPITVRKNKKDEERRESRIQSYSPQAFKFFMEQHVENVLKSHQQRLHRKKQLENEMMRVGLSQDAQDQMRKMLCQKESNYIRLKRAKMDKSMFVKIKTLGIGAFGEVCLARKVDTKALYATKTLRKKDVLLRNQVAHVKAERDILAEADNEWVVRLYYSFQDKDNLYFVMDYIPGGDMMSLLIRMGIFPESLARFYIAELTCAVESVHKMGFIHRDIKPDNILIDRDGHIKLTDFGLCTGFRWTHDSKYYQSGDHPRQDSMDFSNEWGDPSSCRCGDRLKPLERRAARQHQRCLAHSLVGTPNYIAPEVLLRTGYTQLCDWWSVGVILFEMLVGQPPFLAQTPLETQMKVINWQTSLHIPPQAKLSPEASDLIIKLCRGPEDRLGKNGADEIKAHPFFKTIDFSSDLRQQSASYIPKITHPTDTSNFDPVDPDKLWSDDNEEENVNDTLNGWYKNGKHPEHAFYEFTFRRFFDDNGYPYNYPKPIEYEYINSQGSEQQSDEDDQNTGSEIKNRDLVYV


Key:
[1] = target: T1, LATS1 (Large Tumor Suppressor Kinase 1); test: co-immunoprecipitation (HA or pY IP, immunoblot), OMM1.3 cells with HA-MOB1, treated with FAK inhibitor VS-4718
[2] = target: T1, LATS1 (Large Tumor Suppressor Kinase 1); test: co-immunoprecipitation (HA IP, immunoblot), HEK293 cells with or without FAK
[3] = target: T1, LATS1 (Large Tumor Suppressor Kinase 1); test: co-immunoprecipitation (HA IP, immunoblot), OMM1.3 cells with or without VS-4718

Row | binding [1] | binding [2] | binding [3] | Binder
1 | binds | binds |  | HA-MOB1 (wildtype HA-tagged MOB1, from pcDNA3-HA-MOB1 or pLENTi-HA-MOB1) (protein, UniProt Q9H8S9 1-216, looked up, not shown: small tags and cut ends) MSFLFSSRSSKTFKPKKNIPEGSHQYELLKHAEATLGSGNLRQAVMLPEGEDLNEWIAVNTVDFFNQINMLYGTITEFCTEASCPVMSAGPRYEYHWADGTNIKKPIKCSAPKYIDYLMTWVQDQLDDETLFPSKIGVPFPKNFMSVAKTILKRLFRVYAHIYHQHFDSVMQLQEEAHLNTSFKHFIFFVQEFNLIDRRELAPLQELIEKLGSKDR
2 |  | binds | binds | HA-Y26F-MOB1 (mutant HA-tagged MOB1 with Y26F) (protein, UniProt Q9H8S9 1-216, looked up, not shown: small tags and cut ends) MSFLFSSRSSKTFKPKKNIPEGSHQFELLKHAEATLGSGNLRQAVMLPEGEDLNEWIAVNTVDFFNQINMLYGTITEFCTEASCPVMSAGPRYEYHWADGTNIKKPIKCSAPKYIDYLMTWVQDQLDDETLFPSKIGVPFPKNFMSVAKTILKRLFRVYAHIYHQHFDSVMQLQEEAHLNTSFKHFIFFVQEFNLIDRRELAPLQELIEKLGSKDR
